The results in this text go back to PMC10645843, “Fungal secondary metabolism is governed by an RNA-binding protein CsdA/RsdA complex” (Nature Communications, 2023).

In the experiment the target is T1, RsdA-His (PFICI_10532), recombinant (Pestalotiopsis fici, UniProt W3WX91 1-730).
T1 construct: RsdA, regulator of secondary metabolism and development, Pestalotiopsis fici, locus PFICI_10532; open reading frame amplified from P. fici cDNA; RsdA-His printed as 80.4 kDa; Printed as RsdA-His; vector pET28a (His6-tag); also called PfRsdA; RsdA-His protein; source: E. coli BL21 (plasmid pYZS42, pET28a), purified (Ni-NTA resin)
T1 sequence (looked up): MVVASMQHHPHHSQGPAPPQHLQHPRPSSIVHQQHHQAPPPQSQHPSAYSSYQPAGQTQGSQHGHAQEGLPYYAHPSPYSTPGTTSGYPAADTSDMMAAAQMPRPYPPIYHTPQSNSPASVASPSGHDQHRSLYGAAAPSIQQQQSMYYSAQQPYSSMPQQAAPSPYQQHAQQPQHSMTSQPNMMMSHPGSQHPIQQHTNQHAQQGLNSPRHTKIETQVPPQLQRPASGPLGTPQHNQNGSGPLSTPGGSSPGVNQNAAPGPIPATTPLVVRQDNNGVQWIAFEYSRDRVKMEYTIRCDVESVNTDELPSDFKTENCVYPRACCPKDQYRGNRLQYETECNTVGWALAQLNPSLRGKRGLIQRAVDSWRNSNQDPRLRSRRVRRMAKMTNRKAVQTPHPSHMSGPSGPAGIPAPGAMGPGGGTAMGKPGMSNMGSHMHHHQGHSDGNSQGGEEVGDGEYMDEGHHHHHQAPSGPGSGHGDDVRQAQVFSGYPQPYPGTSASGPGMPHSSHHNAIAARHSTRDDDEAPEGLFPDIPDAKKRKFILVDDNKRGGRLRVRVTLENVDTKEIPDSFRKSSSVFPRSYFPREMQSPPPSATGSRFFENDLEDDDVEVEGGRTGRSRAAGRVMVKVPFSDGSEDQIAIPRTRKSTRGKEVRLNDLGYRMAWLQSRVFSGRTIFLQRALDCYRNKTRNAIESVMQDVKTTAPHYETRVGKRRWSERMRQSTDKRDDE
The experiment is described as follows: affinity purification with mass spectrometry; 1 mg RsdA-His on Ni-NTA resin, 10 mg total soluble proteins of P. fici added; wash 50 mM NaH2PO4, 300 mM NaCl, 30 mM imidazole, pH 8.0; eluted with 250 mM imidazole; 12% SDS-PAGE, whole lanes or bands cut for LC-MS, Mascot (p < 0.05); controls: RsdA only, total proteins only; only the target purified.

These are yes or no findings as the source states them, for the method shown. In cells and extracts the contact can be indirect. These calls come from enrichment with a bait or labelling near it, and not all partners need be listed. Tags and fused reporters may be left off the sequences shown.

B1: CsdA (PFICI_10709), endogenous (protein, UniProt W3WSJ8 1-634)
chain: MSTVPPQPPHFDRYVVIHVATTCDEHGVYVTKDSAEVIELGWIELDAKSLEELHRESVLVKPINTPITPLCTSLTTLTWEHVRNAGTFRDAINRFDAFASEHLTNQNLDFVFVTLDAWDLRVQLPREARDKAVVLPPYLQHSRTFDLRTEYQRWQQHHPESLPFGPSMLSNICAALEVEPVQSSAPIKHNLPFHLQALAPASPRRAMEEAITLARVLRGLIRKSQPAHEHPDVLTRPMDARADVRAFLSERSKVLHMSGLPHDTTQSELESWFTQFGGRPIAFWTLRTPEQHKPTGTGFAVFSSHEEAAESLCMNGRALNEKAIEVSPSSSRVLDRAAEILTPFPPSKNRPRPGDWTCPSCGFSNFQRRTACFRCSFPAVGAGGPQNEMSSYGGGGGGSGGYGYGAPPMMPPPHHGGHHHHHGGMGHGGGRMGGSGVVPFRAGDWKCGNEVCGYHNFAKNVCCLRCGASRAGAAVVADSGYPSPMDSGSNYGMGSHSVGGTPGPGPYASAGGPFGGAGGGYGQHFGGPPSTYALPSGIGGGAAPYPSALNTHIGGPAPGSHSAGPFDSRAAEAAFQSAGNGPASAGPSNNFFGSQAENDPFAFLSTGIGGLTVSGDARQNGSGAGGPQSKSPAA
On to B1, for which the binding result is listed as “binds”.
